PMC4038944
Results are given in words; binding and its absence hold for the method and conditions named. For some assays here: Binding can be weak; no strength is given. Where a sequence is shown, tags or fusion partners need not be part of it. For some assays here: In cells and extracts the contact can be indirect.

How the values were obtained:
Myc–C-Nap1-CTD = molecular target: T1, Myc–C-Nap1-CTD (UniProt Q9BV73); assay: co-IP; GFP-tagged protein coexpressed with Myc-tagged CTD constructs in U2OS cells for 24 hours; lysates immunoprecipitated with anti-Myc, blotted with anti-Myc and anti-GFP
T1 sequence: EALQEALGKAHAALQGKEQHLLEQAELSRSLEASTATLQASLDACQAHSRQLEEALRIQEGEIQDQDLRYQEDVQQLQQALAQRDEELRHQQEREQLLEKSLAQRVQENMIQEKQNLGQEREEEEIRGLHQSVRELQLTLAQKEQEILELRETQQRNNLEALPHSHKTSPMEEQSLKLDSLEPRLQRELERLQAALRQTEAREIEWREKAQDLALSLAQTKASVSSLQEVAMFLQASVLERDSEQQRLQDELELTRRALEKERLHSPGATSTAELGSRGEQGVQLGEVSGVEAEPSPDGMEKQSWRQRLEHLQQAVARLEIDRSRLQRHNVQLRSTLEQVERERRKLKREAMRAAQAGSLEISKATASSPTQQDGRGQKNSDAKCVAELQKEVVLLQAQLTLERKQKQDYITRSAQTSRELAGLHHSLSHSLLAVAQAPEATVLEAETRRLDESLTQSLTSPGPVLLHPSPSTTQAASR

Myc–C-Nap1-CTD-S10D [1] = molecular target: Myc–C-Nap1-CTD-S10D (UniProt Q9BV73); assay: as above
Myc–C-Nap1-CTD-KR5E = Myc–C-Nap1-CTD-KR5E (UniProt Q9BV73); assay: co-IP; HA-Cep135-CTD co-transfected with Myc-C-Nap1-CTD constructs into U2OS cells; lysates immunoprecipitated with anti-Myc (or anti-HA, panel A), blotted with anti-C-Nap1, anti-Myc or anti-HA
Myc–C-Nap1-CTD-S10D [2] = molecular target: Myc–C-Nap1-CTD-S10D (UniProt Q9BV73); assay: as above
Myc–C-Nap1-CTD-S5D.1 = Myc–C-Nap1-CTD-S5D.1 (UniProt Q9BV73); assay: as above
Myc–C-Nap1-CTD-S5D.2 = Myc–C-Nap1-CTD-S5D.2 (UniProt Q9BV73); assay: as above
[3] = molecular target: C-Nap1 CTD, LexA/VP16 two-hybrid fusion; assay: two-hybrid; LexA-DBD (pLEICS-81) and VP16-AD (pLEICS-82) fusions in S. cerevisiae L40; beta-galactosidase activity in Miller units
[4] = molecular target: C-Nap1 CTD-S10D, LexA/VP16 two-hybrid fusion; assay: as above

GFP–C-Nap1-CTD (domain or fragment)
binding (Myc–C-Nap1-CTD): binds

B1: GFP–Nek2A (enzyme, UniProt P51955 1-445)
chain: MPSRAEDYEVLYTIGTGSYGRCQKIRRKSDGKILVWKELDYGSMTEAEKQMLVSEVNLLRELKHPNIVRYYDRIIDRTNTTLYIVMEYCEGGDLASVITKGTKERQYLDEEFVLRVMTQLTLALKECHRRSDGGHTVLHRDLKPANVFLDGKQNVKLGDFGLARILNHDTSFAKTFVGTPYYMSPEQMNRMSYNEKSDIWSLGCLLYELCALMPPFTAFSQKELAGKIREGKFRRIPYRYSDELNEIITRMLNLKDYHRPSVEEILENPLIADLVADEQRRNLERRGRQLGEPEKSQDSSPVLSELKLKEIQLQERERALKAREERLEQKEQELCVRERLAEDKLARAENLLKNYSLLKERKFLSLASNPELLNLPSSVIKKKVHFSGESKENIMRSENSESQLTSKSKCKDLKKRLHAAQLRAQALSDIEKNYQLKSRQILGMR
binding (Myc–C-Nap1-CTD-S10D [1]): binds

B2: HA–Cep135-CTD (648–1141) (domain or fragment, UniProt Q66GS9 648-1140)
chain: QAQKFSHVAGDSSHQKTEVNSLRIVNEQLQRSVDDYQHRLSIKRGELESAQAQIKILEEKIDELNLKMTSQDEEAHVMKKTIGVIDKEKDFLQETVDEKTEKIANLQENLANKEKAVAQMKIMISECESSVNQLKETLVNRDREINSLRRQLDAAHKELDEVGRSREIAFKENRRLQDDLATMARENQEISLELEAAVQEKEEMKSRVHKYITEVSRWESLMAAKEKENQDLLDRFQMLHNRAEDWEVKAHQAEGESSSVRLELLSIDTERRHLRERVELLEKEIQEHINAHHAYESQISSMAKAMSRLEEELRHQEDEKATVLNDLSSLRELCIKLDSGKDIMTQQLNSKNLEFERVVVELENVKSESDLLKKQLSNERHTVKNLESLLATNRDKEFHSHLTSHEKDTEIQLLKEKLTLSESKLTSQSRENTMLRAKVAQLQTDYDALKRQISTERYERERAIQEMRRHGLATPPLSSTLRSPSHSPEHRNV
binding (Myc–C-Nap1-CTD-KR5E): no binding | binding (Myc–C-Nap1-CTD-S10D [2]): no binding | binding (Myc–C-Nap1-CTD-S5D.1): binds | binding (Myc–C-Nap1-CTD-S5D.2): binds

B3: Nek2, LexA/VP16 two-hybrid fusion (enzyme, UniProt P51955 1-445)
chain: B1 chain
binding [3]: binds | binding [4]: binds
